For at least one compound, name, drawing or mass did not settle the structure.
Columns and labels:
[1] = system: oocytes in gonad of a 12.5 day-old fetus after fertilization; test: In vitro culture of gonad in presence of PI3K inhibitor; oocyte size counted by Stella-CFP fluorescence; type: cell-based, mouse; conditions: 25 μM Ly; 16th day of culture; FIG. 6A
Protocol: First, a Transwell-COL membrane (3.0 μm pore size, 24 mm diameter) (manufactured by Corning Inc.) was set in each well of a 6-well plate, and the gonad collected in (1) were placed on a membrane. Then, 1.3 mL of medium was added to each well and culture was performed for 16 days. Also, the medium was cultured in αM2 for 4 days and then cultured in S10. In addition, the PI3K inhibitor LY294002 (hereinafter, may be abbreviated as “Ly”) (manufactured by Cell Signaling Technology, model number: 9901) was added to the medium such that a final concentration is 25 μM, during the period from the 6th day to the 16th day from the start of the culture. In addition, ICI 182,780 (7α,17β-[9-[(4,4,5,5,5-pentafluoropentyl)sulfinyl]nonyl]estra-1,3,5(10)-triene-3,17-diol) (manufactured by Tocris Bioscience) which is an estrogen receptor antagonist was added during the period from 5th to 9th day after the start of culture such that a final concentration in the medium is 500 nM. About half of the medium was replaced with a new medium every other day. […] Further, FIG. 6B is a graph in which the number of oocytes was counted using the expression of Stella-CFP as an index in FIG. 6A, and proportions of the oocytes smaller than 20 μm, 20 μm or larger and 50 μm or smaller, and larger than 50 μm were calculated.

[2] = system: transcription factor Foxo3a localization in oocytes; test: In vitro culture of gonad in presence of PI3K inhibitor with or without pressurization; Foxo3a immunostaining; type: cell-based, mouse; conditions: 25 μM Ly, FIG. 7
Protocol: Specifically, first, a Transwell-COL membrane (3.0 μm pore size, 24 mm diameter) (manufactured by Corning Inc.) was set in each well of a 6-well plate, and the gonad collected in (1) were placed on a membrane. Then, 1.3 mL of medium was added to each well and culture was performed for 16 days. For artificial pressurization, AGP-3001S (registered trademark) manufactured by STREX was used to apply a hydrostatic pressure of 33.33 kPa, during the period from the 6th day to the 16th day from the start of the culture. In addition, Ly was added to the medium such that a final concentration is 25 μM, during the period from the 6th day to the 16th day from the start of the culture. Also, the medium was cultured in αM2 for 4 days and then cultured in S10. In addition, ICI 182,780 (7α,17β-[9-[(4,4,5,5,5-pentafluoropentyl)sulfinyl]nonyl]estra-1,3,5(10)-triene-3,17-diol) (manufactured by Tocris Bioscience) which is an estrogen receptor antagonist was added during the period from 5th to 9th day after the start of culture such that a final concentration in the medium is 500 nM. About half of the medium was replaced with anew medium every other day. As a control, those cultured in the same manner in the presence of Ly without pressurization were also prepared. In the gonad cultured in (2), a tissue section of the gonad was prepared by using the same method as in (1) of Reference Example 1. […]

O=c1cc(N2CCOCC2)oc2c(-c3ccccc3)cccc12 [Ly, LY294002]
follicle size observed by fluorescent stereomicroscope [1]: small follicles of smaller than 20 μm were present
Foxo3a localization in immunostaining images ([2]; artificially pressurized condition (33.33 kPa)): localized in the nucleus of the egg
Foxo3a localization in immunostaining images ([2]; without pressurization): localized not only in the nucleus of the egg but also in the cytosol

From patent US12054747B2, “Method of differentiating primordial germ cell into primordial follicle in vitro” (KYUSHU UNIVERSITY, NATIONAL UNIVERSITY CORPORATION, priority 2018, dated 2024)
